The target of test [1] is T1, mTERF4 (human (endogenous in HEK293)) (UniProt Q7Z6M4).
T1 sequence: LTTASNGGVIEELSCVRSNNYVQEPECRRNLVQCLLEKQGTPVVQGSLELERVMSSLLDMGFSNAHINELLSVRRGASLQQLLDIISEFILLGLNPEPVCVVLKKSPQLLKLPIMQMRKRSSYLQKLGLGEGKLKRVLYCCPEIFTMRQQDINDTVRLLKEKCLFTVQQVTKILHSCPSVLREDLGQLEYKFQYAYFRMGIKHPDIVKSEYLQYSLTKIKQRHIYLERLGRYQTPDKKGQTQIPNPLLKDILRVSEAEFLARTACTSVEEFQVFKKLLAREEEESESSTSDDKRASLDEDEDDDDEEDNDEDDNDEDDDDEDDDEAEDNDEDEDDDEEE
Nature of the test: cryo-EM structure; native 39S pre-mitoribosomal particles isolated by anti-Flag affinity purification (MALSU1 or GTPBP10 bait; state 1 also with particles from a uL17 bait) from HEK293 cells; single-particle analysis, average resolutions between 3.1 Å and 5.7 Å; factors fitted as rigid-body homology models or crystal structures.

Amino acid sequences for entries named in this document (tags omitted). Residues count along the entry.
UniProt Q96CB9, residues 26-384: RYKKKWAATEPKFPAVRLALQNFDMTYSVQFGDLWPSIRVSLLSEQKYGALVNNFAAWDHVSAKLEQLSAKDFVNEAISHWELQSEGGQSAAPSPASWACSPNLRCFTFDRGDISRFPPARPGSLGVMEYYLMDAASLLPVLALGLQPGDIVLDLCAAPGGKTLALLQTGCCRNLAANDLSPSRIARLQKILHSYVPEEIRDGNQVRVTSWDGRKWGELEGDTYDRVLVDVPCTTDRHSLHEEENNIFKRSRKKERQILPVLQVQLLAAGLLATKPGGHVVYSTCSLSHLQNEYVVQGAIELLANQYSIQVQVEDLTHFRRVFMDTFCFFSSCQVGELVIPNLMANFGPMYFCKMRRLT

For test [2], the target named is T2, MRM3 (human (endogenous in HEK293)) (UniProt Q9HC36).
T2 sequence: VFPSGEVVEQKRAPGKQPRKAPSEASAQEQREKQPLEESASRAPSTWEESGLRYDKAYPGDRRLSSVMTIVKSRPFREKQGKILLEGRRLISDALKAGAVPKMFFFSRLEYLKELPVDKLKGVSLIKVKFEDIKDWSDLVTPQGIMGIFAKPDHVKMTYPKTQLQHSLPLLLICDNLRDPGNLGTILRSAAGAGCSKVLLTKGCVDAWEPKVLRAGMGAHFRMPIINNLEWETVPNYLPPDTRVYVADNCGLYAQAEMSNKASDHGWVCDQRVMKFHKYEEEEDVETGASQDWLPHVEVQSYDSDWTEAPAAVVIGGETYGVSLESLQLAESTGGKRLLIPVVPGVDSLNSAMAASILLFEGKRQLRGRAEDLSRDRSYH
Described as above.

No constants are given. Whether binding was seen depends on the method and setting. Some entries that bind do so weakly or less than the wild type.

As for NSUN4 (from UniProt Q96CB9 26-384), in test [1], the binding result is “binds”.

B1: DDX28 (protein, UniProt Q9NUL7 1-540)
chain: MALTRPVRLFSLVTRLLLAPRRGLTVRSPDEPLPVVRIPVALQRQLEQRQSRRRNLPRPVLVRPGPLLVSARRPELNQPARLTLGRWERAPLASQGWKSRRARRDHFSIERAQQEAPAVRKLSSKGSFADLGLEPRVLHALQEAAPEVVQPTTVQSSTIPSLLRGRHVVCAAETGSGKTLSYLLPLLQRLLGQPSLDSLPIPAPRGLVLVPSRELAQQVRAVAQPLGRSLGLLVRDLEGGHGMRRIRLQLSRQPSADVLVATPGALWKALKSRLISLEQLSFLVLDEADTLLDESFLELVDYILEKSHIAEGPADLEDPFNPKAQLVLVGATFPEGVGQLLNKVASPDAVTTITSSKLHCIMPHVKQTFLRLKGADKVAELVHILKHRDRAERTGPSGTVLVFCNSSSTVNWLGYILDDHKIQHLRLQGQMPALMRVGIFQSFQKSSRDILLCTDIASRGLDSTGVELVVNYDFPPTLQDYIHRAGRVGRVGSEVPGTVISFVTHPWDVSLVQKIELAARRRRSLPGLASSVKEPLPQAT
B1: the binding result in test [2] is reported as “binds”.

These data come from article PMC8316566.
